# According to PubChem BioAssay (Tox21):
# The source calls these results inconclusive, neither active nor inactive. Calls come from the whole dose curve; as a rule, active = well fitted cell-killing curve with a large enough effect in the repeat runs; inconclusive = weak or mixed curves; inactive = no such curve, though single readings can be large or run the other way.
# Test: qHTS assay to identify small molecule antagonists of the androgen receptor (AR) signaling pathway - cell viability counter screen (AID 743033; note: nearly all actives have a fitted effect of over 45% in size)
# Details: AR-bla HEK293 viability, CellTiter-Glo luminescence, 16 h
# Potency is the fitted concentration of half-maximal effect.
compound,measurement,value
CN(C)CCS,Potency,inconclusive: 26.8 µM
